Data on 1 molecule can be found in article PMC6393303.

The experiment has as its target T1, Pol3 catalytic subunit of mini-Pol δ-DV (N-terminal truncation of 81 amino acids, D520V) (S. cerevisiae) (UniProt P15436).
T1 sequence: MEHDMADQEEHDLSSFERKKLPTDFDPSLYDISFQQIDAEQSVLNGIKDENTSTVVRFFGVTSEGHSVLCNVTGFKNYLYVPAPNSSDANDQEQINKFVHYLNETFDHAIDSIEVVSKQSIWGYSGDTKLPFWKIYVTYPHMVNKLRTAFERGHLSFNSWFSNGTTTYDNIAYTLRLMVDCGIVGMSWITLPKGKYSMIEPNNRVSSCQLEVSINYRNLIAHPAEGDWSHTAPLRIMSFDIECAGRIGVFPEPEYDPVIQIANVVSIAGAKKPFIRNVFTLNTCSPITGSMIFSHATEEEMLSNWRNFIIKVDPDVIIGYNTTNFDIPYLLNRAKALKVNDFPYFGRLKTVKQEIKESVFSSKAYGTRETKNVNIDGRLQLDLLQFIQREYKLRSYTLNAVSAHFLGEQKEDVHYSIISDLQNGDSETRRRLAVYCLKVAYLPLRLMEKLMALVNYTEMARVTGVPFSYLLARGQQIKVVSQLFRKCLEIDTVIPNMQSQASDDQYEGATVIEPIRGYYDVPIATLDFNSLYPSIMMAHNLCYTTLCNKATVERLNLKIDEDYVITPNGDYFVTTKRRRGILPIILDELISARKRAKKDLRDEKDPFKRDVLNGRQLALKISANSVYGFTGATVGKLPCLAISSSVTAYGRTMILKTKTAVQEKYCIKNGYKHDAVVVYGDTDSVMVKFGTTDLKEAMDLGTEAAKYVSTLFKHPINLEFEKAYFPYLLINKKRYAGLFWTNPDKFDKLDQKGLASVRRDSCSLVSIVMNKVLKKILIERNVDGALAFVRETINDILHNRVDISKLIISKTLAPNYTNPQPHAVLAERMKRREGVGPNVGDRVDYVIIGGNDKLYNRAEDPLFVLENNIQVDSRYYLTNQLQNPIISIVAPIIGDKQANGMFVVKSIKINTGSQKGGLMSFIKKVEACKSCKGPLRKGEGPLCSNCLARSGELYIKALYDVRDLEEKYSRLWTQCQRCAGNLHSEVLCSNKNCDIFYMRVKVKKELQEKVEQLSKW
The experiment is described as follows: co-purification; mini-Pol δ-DV overexpressed in yeast and purified as a three-subunit complex; subunits seen in approximately equimolar ratio (Supplementary Figure S1A).

These are yes or no findings as the source states them, for the method shown. Some binding calls cover weakened binding; strength is not graded here.

B1: Pol31 subunit of mini-Pol δ-DV (protein, UniProt P46957 1-487)
chain: MDALLTKFNEDRSLQDENLSQPRTRVRIVDDNLYNKSNPFQLCYKKRDYGSQYYHIYQYRLKTFRERVLKECDKRWDAGFTLNGQLVLKKDKVLDIQGNQPCWCVGSIYCEMKYKPNVLDEVINDTYGAPDLTKSYTDKEGGSDEIMLEDESGRVLLVGDFIRSTPFITGVVVGILGMEAEAGTFQVLDICYPTPLPQNPFPAPIATCPTRGKIALVSGLNLNNTSPDRLLRLEILREFLMGRINNKIDDISLIGRLLICGNSVDFDIKSVNKDELMISLTEFSKFLHNILPSISVDIMPGTNDPSDKSLPQQPFHKSLFDKSLESYFNGSNKEILNLVTNPYEFSYNGVDVLAVSGKNINDICKYVIPSNDNGESENKVEEGESNDFKDDIEHRLDLMECTMKWQNIAPTAPDTLWCYPYTDKDPFVLDKWPHVYIVANQPYFGTRVVEIGGKNIKIISVPEFSSTGMIILLDLETLEAETVKIDI
In the case of B1, the binding result was “binds”.
